Over roughly 33,000 sequences, “E-score (-0.5 to 0.5)” has its median near -8e-05; the highest 2% begin near 0.23. The list shows a part of the results.
target: T1, Nrg2 (UniProt P38082); assay: PBM E-score (8-mer binding enrichment) (E-score (-0.5 to 0.5)); higher = stronger / more preferred TF binding; details: protein concentration: 100 nM; construct: GST-full length
T1 sequence: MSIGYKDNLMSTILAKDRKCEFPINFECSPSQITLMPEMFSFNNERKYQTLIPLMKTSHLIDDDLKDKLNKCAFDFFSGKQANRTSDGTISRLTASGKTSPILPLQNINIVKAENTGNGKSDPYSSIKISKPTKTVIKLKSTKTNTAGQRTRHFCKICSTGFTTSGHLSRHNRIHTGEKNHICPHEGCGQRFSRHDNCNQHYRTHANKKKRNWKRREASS
Procedure, shortened: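 Bound GST-tagged yeast transcription factors, applied at about 100-200 nM to double-stranded universal all-10-mer Agilent arrays, were detected with fluorescent anti-GST. Scans were normalised with masliner. A modified Wilcoxon-Mann-Whitney statistic, the E-score, was assigned to each ungapped eight-base word pooled with its reverse complement by the Universal PBM Analysis Suite.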

Row | Sequence | PBM E-score
1 | CAACAAAG | 0.132
2 | ACCCGGCA | -0.028
3 | GACGCCGC | -0.068
4 | GATACGAA | 0.0113
5 | ACAGTACG | 0.149
6 | ATGCGCAT | 0.368
7 | ATCGGGCG | -0.0126
8 | AATAGTAC | -0.0053
9 | CGATGAGC | -0.0638
10 | CGTACGAG | -0.081
11 | CGTTTGAA | 0.00719
12 | AAGGTGGC | -0.132
13 | CTATGAAG | -0.0859
14 | GCGTGAAC | -0.0729
15 | AGTAAAAA | 0.0662
16 | GCTCTGTA | -0.0163
17 | ATCTCCTC | 0.0366
18 | CTACGCTC | -0.069
19 | AGTAGGGA | -0.0186
20 | ACGGGGGG | -0.417
21 | AATATTCC | 0.233
22 | AATGAACC | 0.00986
23 | ACCACCGT | -0.109
24 | CGGCGCAC | 0.0314
25 | CCGAATGA | 0.00868

Row | Sequence | PBM E-score
26 | AGCCTCAC | -0.0991
27 | CCGTCGAG | 0.124
28 | GCGCCCCC | -0.295
29 | ATTTTGCG | 0.107
30 | AAATAATT | 0.243
31 | AAGGGTTA | 0.076
32 | AATACTGT | 0.161
33 | AACCTGAT | 0.0634
34 | CACCGGCG | 0.115
35 | GGCAGAGA | 0.0271
36 | AATATAAG | 0.258
37 | CCAGCTTA | -0.0886
38 | TGACGCAA | 0.157
39 | AACTGCAT | 0.232
40 | CAATCCTC | -0.1
41 | AATATGCT | 0.017
42 | ACGAATCA | 0.162
43 | CGGCCATC | -0.277
44 | ATGGAGCC | -0.221
45 | TAATGTGA | 0.112
46 | AGAAGTTG | -0.0165
47 | AGTGGGGG | -0.399
48 | GTAGTTCA | -0.0407
49 | CAAGGCAC | -0.00388
50 | CTGTGGAC | -0.00566

Row | Sequence | PBM E-score
51 | CCCCGGGC | -0.242
52 | GTACCTGA | 0.0223
53 | TATAAGCA | 0.0871
54 | AAGCACTG | 0.064
55 | AACTCCTA | 0.0887
56 | AGATATTG | 0.129
57 | GAGGACTC | -0.292
58 | CCGTTTGC | -0.0133
59 | AGACGCAG | -0.069
60 | CTTACCGC | -0.0617
61 | CGTGAGGA | -0.0766
62 | ACTCAACA | 0.187
63 | GGACCGCA | -0.0478
64 | CTACCAAC | -0.0572
65 | AGTTACCC | -0.0644
66 | GACGCTGC | -0.136
67 | GCCAATGA | -0.145
68 | CAGTTTTA | 0.0445
69 | ACTAAAGA | -0.0154
70 | ACCCTAGA | 0.284
71 | CCAGGTAG | -0.12
72 | CAGTCCAC | -0.0861
73 | CTTCAAAG | -0.225
74 | ATCAGGAT | 0.0778
75 | GCTTATCC | -0.0275

Row | Sequence | PBM E-score
76 | CAATTCGA | -0.135
77 | ATGTACAG | -0.0816
78 | CGACGTAG | -0.188
79 | ATCCGGAT | 0.0929
80 | ATGTCCAG | -0.0462
81 | AGAGATGC | 0.0246
82 | AGAATTTC | -0.0868
83 | ATCCGGTA | -0.0738
84 | ACAACCCT | 0.188
85 | ATTTGAAA | 0.142
86 | GGATCGAC | 0.0407
87 | ACCGTACG | -0.114
88 | CCAAAGGA | -0.0689
89 | ACATCAAA | 0.00799
90 | ACACCAAT | 0.183
91 | CCTCCGGC | -0.151
92 | ACCAGGAT | 0.0294
93 | TCCTGACA | 0.091
94 | CTATATGA | -0.0356
95 | CCTCTACG | -0.135
96 | GCAGATCA | -0.0576
97 | AATTACAC | 0.0164
98 | ATCGTATA | 0.0584
99 | CAAGTGCA | -0.201
100 | AAACCAAC | -0.0262

Records 92–98 from above:
Row | Sequence | PBM E-score
92 | ACCAGGAT | 0.0294
93 | TCCTGACA | 0.091
94 | CTATATGA | -0.0356
95 | CCTCTACG | -0.135
96 | GCAGATCA | -0.0576
97 | AATTACAC | 0.0164
98 | ATCGTATA | 0.0584

(list continues)

Row | Sequence | PBM E-score
101 | ATTATAGG | 0.123
102 | ATGGCGGC | 0.0735
103 | ACTGACCA | -0.091
104 | CAATAAGG | -0.0927
105 | AAACCTAT | -0.0961
106 | GCAATTAC | 0.104
107 | TAATCAAA | 0.207
108 | AGGCAACA | -0.168
109 | TCGCACAA | 0.108
110 | AGGCGGAA | -0.0108
111 | GGGCGGTA | -0.192
112 | ATGTAGGC | -0.0515
113 | ATACATTG | 0.129
114 | GCGGACTA | -0.0963
115 | CGAATTAG | 0.186
116 | GGGTATAC | 0.0628
117 | CACCTTCG | -0.151
118 | TCGCTGAA | 0.0436
119 | CGCACCAC | 0.17
120 | CTACTTCA | 0.0814
121 | AACGTGCG | 0.0054
122 | ATAAGTGG | 0.0259
123 | ATTCAGGC | 0.106
124 | CCAACCCA | -0.242
125 | ACGACCAT | -0.0998

Row | Sequence | PBM E-score
126 | CCACGGTC | -0.206
127 | GGCGCTAC | -0.314
128 | AAAGGCGA | -0.179
129 | CGGATCGA | -0.0456
130 | ACACGGTG | -0.142
131 | GTGCATCA | 0.129
132 | GGCAGCTA | 0.0336
133 | AGAGCGTC | -0.112
134 | AGGTCAAT | 0.121
135 | CTATATAA | 0.0499
136 | CAGCCAAC | -0.121
137 | CGGACCCA | -0.0998
138 | AGCGGTAT | 0.144
139 | CAGAACTG | 0.162
140 | AATATTCT | 0.0382
141 | AACGTGAG | -0.128
142 | AAGGCAGG | 0.0209
143 | GGTTGAGA | -0.0311
144 | TAAAAAAA | -0.0662
145 | ACTGTACA | -0.188
146 | AGCGTGTC | -0.106
147 | CACGCCGC | -0.171
148 | CGCCGACA | -0.0437
149 | ACTTCTAC | -0.0161
150 | TATCTGGA | -0.00866

Row | Sequence | PBM E-score
151 | CGGTGTGC | -0.226
152 | ACGGCTTG | -0.154
153 | ATTCCTAG | -0.0595
154 | AATATCGA | 0.244
155 | CGCATCCC | -0.174
156 | CTCATATA | 0.029
157 | GTTAAGTA | 0.0775
158 | AAACTATT | -0.0651
159 | GATCCGGC | -0.143
160 | CGCCGGTA | -0.0314
161 | ACGGGCCT | -0.0944
162 | CAGCCGAA | -0.00884
163 | CACGGGAG | -0.095
164 | CGCGAAAC | -0.00328
165 | CGTACGTA | -0.21
166 | AGCGCAGA | 0.00305
167 | GCATTCCA | -0.0929
168 | AAAACTAA | 0.234
169 | ATGGTGAA | -0.0969
170 | CTGATGCA | 0.128
171 | ATGAATCC | 0.13
172 | ATCTTTAG | -0.0408
